Patent US20230181579A1, “SELECTIVE TREATMENT OF CANCERS HAVING HISTONE H3 MUTATIONS OR ABERRAN TLEVELS OF DNA OR HISTONE METHYLATION, ACETYLATION OR DEFECTS IN HOMOLOGOUS RECOMBINATION” (Florida State University Research Foundation, Inc., priority 2020, published 2023)
For at least one compound, name, drawing or mass did not settle the structure.

Assays:
Type in all cases: cell-based, human
[1] = system: H3.3 K27M mutant DIPG cells; experiment: Survival assay, patient derived H3.3 K27M mutant DIPG cells; conditions: for survival of H3 K27M mutant cancer cells, inhibitor with ionizing radiation: combined with ionizing radiation; for survival of H3 K27M mutant cancer cells, inhibitor with ionizing radiation / survival of patient derived cancer cells carrying the H3 K27M mutation: concentration not given; for survival of patient derived cancer cells carrying the H3 K27M mutation: inhibitor alone
Procedure: (§1) Survival assays. To determine the sensitivity of cells to NHEJ inhibitors, IDH inhibitors, HATi or HDACi in combination with ionizing radiation, 25,000 cells were seeded per well in triplicate in 12-well cell culture plates in the presence of the indicated NHEJ inhibitors. Following reattachment of the cells to the bottom of the culture plate, they were irradiated with the indicated doses of X-rays using an X-Rad 320 irradiator (Precision X-Ray). Accurate X-ray dose delivery was determined using UNIDOS E dosimeter. Surviving cells were measured 7 days post-irradiation by first dissociating the cells with trypsin and then counting them on a Z3 Coulter counter (Beckman-Coulter). Experiments were typically repeated at least 3 times.

[2] = system: glioblastoma cells carrying wild type H3.3 (SF188, PCGBM2); experiment: Survival assay, patient derived glioblastoma cells carrying wild type H3.3; conditions: concentration not given
Procedure: as §1

[3] = system: KNS42 cells carrying the H3.3 G34V mutation; experiment: Survival assay, KNS42 pediatric glioblastoma cells; conditions: HAT inhibitor; concentration not given
Procedure: as §1

Row | SMILES | survival of H3 K27M mutant cancer cells, inhibitor with ionizing radiation [1] | survival of patient derived cancer cells carrying the H3 K27M mutation [1] | survival of cells carrying wild type H3 [2] | survival of cells carrying the H3.3 G34V mutation [3] | survival, triple combination Olaparib + AG120 + Curcumin ([1]; 7 days exposure, concentrations only in figure)
1 | C=C(C)[C@@H](CC=C(C)C)C[C@@]12C[C@@H](CC=C(C)C)C(C)(C)[C@@](CC=C(C)C)(C(=O)C(C(=O)c3ccc(O)c(O)c3)=C1O)C2=O [Garcinol] | synergistic with ionizing radiation | specifically eliminate | sparing the majority of cells | sparing the majority of cells | –
2 | COc1cc(/C=C/C(=O)CC(=O)/C=C/c2ccc(O)c(OC)c2)ccc1O [Curcumin] | synergistic with ionizing radiation | specifically eliminate | sparing the majority of cells | sparing the majority of cells | exquisitely sensitive
